These are yes or no findings as the source states them, for the method shown. Binding seen in cells or lysates may run through a third protein. These calls come from enrichment with a bait or labelling near it, and not all partners need be listed. Blank lines part the entries; values can stand above or below the binder they belong to.
Tests used:
Assay in all cases: affinity purification with mass spectrometry; HA- and His6-tagged bait made from its native locus, captured from clarified T. kodakarensis lysate on a Ni2+-charged chelating column (buffer A: 10 mM Tris HCl pH 8.0, 500 mM NaCl, 10% glycerol), eluted with an imidazole gradient; pooled fractions identified by MuDPIT LC-MS/MS and compared with the parental strain TS559 (P < 0.05, log2 fold change ≥ 2); cells grown at 85°C with (+S˚) or without (–S˚) elemental sulfur
[1] = target: T1, 2-Oxoisovalerate-ferredoxin oxidoreductase, δ subunit (Thermococcus kodakarensis) (UniProt Q5JIK1)
T1 sequence: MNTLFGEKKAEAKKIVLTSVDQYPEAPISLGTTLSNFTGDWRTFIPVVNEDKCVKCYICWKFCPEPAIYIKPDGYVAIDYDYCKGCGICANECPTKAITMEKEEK

Amino acid sequences for entries named in this document (tags omitted). A change or cut given only in a name is not applied to a line headed by its entry.
UniProt Q5JIK0: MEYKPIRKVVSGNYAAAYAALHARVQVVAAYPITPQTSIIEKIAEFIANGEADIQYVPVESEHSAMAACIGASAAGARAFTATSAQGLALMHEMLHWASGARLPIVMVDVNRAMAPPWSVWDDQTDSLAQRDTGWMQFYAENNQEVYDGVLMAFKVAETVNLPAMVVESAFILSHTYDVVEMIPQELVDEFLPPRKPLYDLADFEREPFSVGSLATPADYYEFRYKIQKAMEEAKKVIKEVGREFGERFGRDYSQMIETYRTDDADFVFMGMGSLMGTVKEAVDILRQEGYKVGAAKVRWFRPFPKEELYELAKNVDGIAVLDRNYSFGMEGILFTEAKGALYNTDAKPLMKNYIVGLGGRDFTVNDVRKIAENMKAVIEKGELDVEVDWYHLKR

[2] = target: T2, 2-Oxoisovalerate-ferredoxin oxidoreductase, β subunit (Thermococcus kodakarensis) (UniProt Q5JIJ9)
T2 sequence: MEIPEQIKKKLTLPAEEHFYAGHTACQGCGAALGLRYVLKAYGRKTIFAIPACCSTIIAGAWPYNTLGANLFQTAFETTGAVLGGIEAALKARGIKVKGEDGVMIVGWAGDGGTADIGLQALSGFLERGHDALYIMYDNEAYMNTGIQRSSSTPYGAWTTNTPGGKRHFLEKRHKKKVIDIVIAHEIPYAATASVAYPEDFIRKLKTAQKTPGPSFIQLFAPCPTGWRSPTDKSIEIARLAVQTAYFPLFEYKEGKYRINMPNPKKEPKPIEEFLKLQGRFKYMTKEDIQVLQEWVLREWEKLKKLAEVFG

[3] = target: 2-Oxoisovalerate-ferredoxin oxidoreductase, α subunit (Thermococcus kodakarensis) (UniProt Q5JIK0)
[4] = target: T3, 2-Oxoisovalerate-ferredoxin oxidoreductase, γ subunit (Thermococcus kodakarensis) (UniProt Q5JIK2)
T3 sequence: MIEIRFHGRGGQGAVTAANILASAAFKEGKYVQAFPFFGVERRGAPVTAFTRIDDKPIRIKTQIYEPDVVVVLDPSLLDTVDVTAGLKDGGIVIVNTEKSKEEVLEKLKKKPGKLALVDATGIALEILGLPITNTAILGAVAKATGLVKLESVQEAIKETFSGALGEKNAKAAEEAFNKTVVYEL

[5] = target: T4, Membrane-bound sulfane reductase, NiFe-hydrogenase large subunit 2, MBS-L (Thermococcus kodakarensis) (UniProt Q5JGG2)
T4 sequence: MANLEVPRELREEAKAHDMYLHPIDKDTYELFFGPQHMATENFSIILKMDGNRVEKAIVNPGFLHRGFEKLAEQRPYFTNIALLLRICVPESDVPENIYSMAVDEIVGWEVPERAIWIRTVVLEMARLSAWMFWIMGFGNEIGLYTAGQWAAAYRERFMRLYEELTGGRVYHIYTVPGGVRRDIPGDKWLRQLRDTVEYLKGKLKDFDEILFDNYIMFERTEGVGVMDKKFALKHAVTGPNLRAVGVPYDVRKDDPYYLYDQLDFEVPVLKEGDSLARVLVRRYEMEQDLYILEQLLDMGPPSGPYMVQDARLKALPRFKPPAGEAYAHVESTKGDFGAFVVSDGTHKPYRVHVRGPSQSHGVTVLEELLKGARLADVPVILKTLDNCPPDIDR

[6] = target: T5, Rubrerythrin-related protein (Thermococcus kodakarensis) (UniProt Q5JF77)
T5 sequence: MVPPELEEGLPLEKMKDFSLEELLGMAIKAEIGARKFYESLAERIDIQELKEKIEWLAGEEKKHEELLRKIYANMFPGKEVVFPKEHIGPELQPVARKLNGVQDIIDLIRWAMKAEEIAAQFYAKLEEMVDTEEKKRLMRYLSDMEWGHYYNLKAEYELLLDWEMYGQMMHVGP

[7] = target: T6, Ferredoxin:NADP oxidoreductase, β subunit (FNOR2) (Thermococcus kodakarensis) (UniProt Q5JIY6)
T6 sequence: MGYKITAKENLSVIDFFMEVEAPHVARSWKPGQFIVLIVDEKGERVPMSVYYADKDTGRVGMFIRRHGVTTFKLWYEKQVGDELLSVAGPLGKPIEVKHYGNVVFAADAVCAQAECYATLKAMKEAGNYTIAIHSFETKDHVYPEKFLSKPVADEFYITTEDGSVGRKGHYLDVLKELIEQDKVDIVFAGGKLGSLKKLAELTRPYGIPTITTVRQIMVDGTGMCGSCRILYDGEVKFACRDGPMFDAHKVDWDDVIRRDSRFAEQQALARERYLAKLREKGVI

[8] = target: T7, Formate dehydrogenase, [4Fe-4S] cluster-binding protein, FDHγ3 (Thermococcus kodakarensis) (UniProt Q5JHV9)
T7 sequence: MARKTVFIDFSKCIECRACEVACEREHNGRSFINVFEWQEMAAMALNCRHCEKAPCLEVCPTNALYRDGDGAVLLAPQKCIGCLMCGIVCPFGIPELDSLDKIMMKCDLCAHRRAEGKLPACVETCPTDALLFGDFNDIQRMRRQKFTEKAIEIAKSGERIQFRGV

[9] = target: T8, Rubrerythrin Mn-catalase (Thermococcus kodakarensis) (UniProt Q5JHY4)
T8 sequence: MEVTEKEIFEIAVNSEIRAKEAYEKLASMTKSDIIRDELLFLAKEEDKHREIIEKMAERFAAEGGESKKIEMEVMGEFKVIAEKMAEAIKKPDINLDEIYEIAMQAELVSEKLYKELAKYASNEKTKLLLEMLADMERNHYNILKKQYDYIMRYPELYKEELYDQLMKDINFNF

binding [1]: binds
binding [2]: binds
binding [3]: binds
binding [4]: binds
B1: Rubrerythrin-related protein (protein, UniProt Q5JF77 1-174)
chain: T5 sequence

binding [5]: binds
binding [6]: binds
binding [7]: binds
binding [8]: binds
binding [9]: binds
B2: ferredoxin 3 (protein, UniProt Q5JDE8 1-138)
chain: MADVKAPVIGRDALGREVKDLSVIPWWGVDRKEIEWYPKINYSVCARCGLCFITCGRRVFDWDTEEGKPVVARPYNCMVGCNTCAILCPCNAIEFPPKEYVKKLVIEHGIIRKAFEITKPLTKKKEESTNGAESVFNP
